US5716929A (Vertex Pharmaceuticals, Inc., priority 1995, dated 1998)

Experiment: general procedure: solution-phase peptide synthesis; EDC/HOBT
Settings: late stage modification step

Row | Substance | step yield [%]
1 | (3S)t-Butyl N-(N-acetyl-(S)-tyrosinyl-(S)-valinyl-(S)-alaninyl)-3-amino-4-(2-(4-methoxybenzoxazolyl))-4-oxobutanoate | 96
2 | N-(N-Acetyl-tyrosinyl-valinyl-(4(R)-allyloxyprolinyl))-3(S)-amino-4-oxobutanoic acid | 53
3 | (3S)t-Butyl N-(N-acetyl-(S)-(O-tert-butyl-tyrosinyl)-(S)-valinyl-(S)-alaninyl)-3-amino-4-(2-(7-methoxybenzoxazolyl))-4-oxobutanate | 100
4 | (3S)N-(N-Acetyl-(S)-tyrosinyl-(S)-valinyl-(S)-alaninyl)-3-amino-4-(2-(7-methoxybenzoxazolyl))-4-oxobutanoate | 83
